Results are given in words; binding and its absence hold for the method and conditions named. For some of these results: Binding seen in cells or lysates may run through a third protein. Some entries that bind do so weakly or less than the wild type. For some of these results: Sequences can lack the tags named with a protein. Values belong to the binder of their own block, whether it stands above or below them.
Legend:
[1] = target: T1, JUNB (aa 148-347) with C-terminal 6-histidine tag (human) (UniProt P17275); experiment: pull-down; co-purification: mCherry-BATFx (no affinity tag) co-expressed in E. coli with JUNB(148-347)-6His, purified on Ni-NTA agarose; mCherry colour as indicator of BATFx
T1 sequence: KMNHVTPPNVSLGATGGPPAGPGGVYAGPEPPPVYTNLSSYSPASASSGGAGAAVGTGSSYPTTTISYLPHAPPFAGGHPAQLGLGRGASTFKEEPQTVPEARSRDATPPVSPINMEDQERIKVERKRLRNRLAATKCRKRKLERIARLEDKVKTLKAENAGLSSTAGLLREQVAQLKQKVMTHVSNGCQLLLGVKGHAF

[2] = target: T2, BATF3–JUNB hetero-dimer (human) (UniProt Q9NR55+P17275); experiment: native gel or EMSA; complex formed on a dsDNA library: 100 nM BATFx-JUNB heterodimer, 150 nM IRF protein, 1 uM dsDNA library in 1x NEB Cutsmart buffer (pH 7.9) with 10% glycerol, 30 min on ice; native 9% PAGE in Tris/Glycine at 4 °C; both purified
T2 sequence 1: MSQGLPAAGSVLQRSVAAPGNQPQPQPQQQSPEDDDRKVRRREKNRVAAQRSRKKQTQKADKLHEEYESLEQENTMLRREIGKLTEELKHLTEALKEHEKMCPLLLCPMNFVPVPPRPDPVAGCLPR
T2 sequence 2: T1 sequence

binding [1]: binds
B1: mCherry-BATF (full length human BATF with N-terminal mCherry and TEV site) (protein, UniProt Q16520 1-125)
chain: MPHSSDSSDSSFSRSPPPGKQDSSDDVRRVQRREKNRIAAQKSRQRQTQKADTLHLESEDLEKQNAALRKEIKQLTEELKYFTSVLNSHEPLCSVLAASTPSPPEVVYSAHAFHQPHVSSPRFQP

binding [1]: binds
B2: mCherry-BATF3 (full length human BATF3 with N-terminal mCherry and TEV site) (protein, UniProt Q9NR55 1-127)
chain: T2 sequence 1

binding [2]: binds
B3: IRF4 (full length human) (protein, UniProt Q15306 1-451)
chain: MNLEGGGRGGEFGMSAVSCGNGKLRQWLIDQIDSGKYPGLVWENEEKSIFRIPWKHAGKQDYNREEDAALFKAWALFKGKFREGIDKPDPPTWKTRLRCALNKSNDFEELVERSQLDISDPYKVYRIVPEGAKKGAKQLTLEDPQMSMSHPYTMTTPYPSLPAQQVHNYMMPPLDRSWRDYVPDQPHPEIPYQCPMTFGPRGHHWQGPACENGCQVTGTFYACAPPESQAPGVPTEPSIRSAEALAFSDCRLHICLYYREILVKELTTSSPEGCRISHGHTYDASNLDQVLFPYPEDNGQRKNIEKLLSHLERGVVLWMAPDGLYAKRLCQSRIYWDGPLALCNDRPNKLERDQTCKLFDTQQFLSELQAFAHHGRSLPRFQVTLCFGEEFPDPQRQRKLITAHVEPLLARQLYYFAQQNSGHFLRGYDLPEHISNPEDYHRSIRHSSIQE

binding [1]: binds
B4: mCherry-BATF2 (aa 1-142, N-terminal bZIP domain of human BATF2) (domain or fragment, UniProt Q8N1L9 1-142)
chain: MHLCGGNGLLTQTDPKEQQRQLKKQKNRAAAQRSRQKHTDKADALHQQHESLEKDNLALRKEIQSLQAELAWWSRTLHVHERLCPMDCASCSAPGLLGCWDQAEGLLGPGPQGQHGCREQLELFQTPGSCYPAQPLSPGPQP

Reference: publication PMC5869772, “Quantitative profiling of BATF family proteins/JUNB/IRF hetero-trimers using Spec-seq” (BMC Molecular Biology, 2018)
